Measurements published in PMC10152145.
No constants are given. Whether binding was seen depends on the method and setting. In cells and extracts the contact can be indirect. For some of these results: Binding calls can cover weak binding; strength is not graded here. For some of these results: Sequences can lack the tags named with a protein.

B1: pSITE17 (cYFP‐GW)‐RH12 (protein, UniProt Q9M2E0 1-498)
chain: MNTNRGRYPPGVGTGRGAPPNPDYHQSYRQQQPPQDQQYVQRGYSQNPQQMQLQQQHQQQQQQQQWSRRPQLPGNASNANEVVQQTTQPEASSDANGQDWKATLRLPPPDTRYQTADVTATKGNEFEDYFLKRDLLKGIYEKGFEKPSPIQEESIPIALTGSDILARAKNGTGKTGAFCIPVLEKIDPNNNVIQAMILVPTRELALQTSQVCKELSKYLNIQVMVTTGGTSLRDDIMRLHQPVHLLVGTPGRILDLTKKGVCVLKDCAMLVMDEADKLLSAEFQPSLEELIQFLPQNRQFLMFSATFPVTVKAFKDRHLRKPYVINLMDQLTLMGVTQYYAFVEERQKVHCLNTLFSKLQINQSIIFCNSVNRVELLAKKITELGYSCFYIHAKMVQDHRNRVFHEFRNGACRNLVCTDLFTRGIDIQAVNVVINFDFPRTSESYLHRVGRSGRFGHLGLAVNLVTYEDRFKMYQTEQELGTEIKPIPSNIDQAIYCQ
B2: pSITE17 (cYFP‐GW)‐FLXL1 (protein, UniProt Q93V84 1-331)
chain: MSGRNRGPPPPSMKGGSYSGLQAPVHQPPFVRGLGGGPVPPPPHPSMIDDSREPQFRVDARGLPPQFSILEDRLAAQNQDVQGLLADNQRLAATHVALKQELEVAQHELQRIMHYIDSLRAEEEIMMREMYDKSMRSEMELREVDAMRAEIQKIRADIKEFTSGRQELTSQVHLMTQDLARLTADLQQIPTLTAEIENTKQELQRARAAIDYEKKGYAENYEHGKIMEHKLVAMARELEKLRAEIANSETSAYANGPVGNPGGVAYGGGYGNPEAGYPVNPYQPNYTMNPAQTGVVGYYPPPYGPQAAWAGGYDPQQQQQQQPPPQGQGHR
B3: PAT1‐GFP (protein, UniProt Q0WPK4 1-793)
chain: MDAFGIGSSLNQAPVTQDLKKFGDNSTGNTMFDASQYAFFGNDVVEEVELGGLEEEDEILSFTGIAEDFSFDKEEVGDSRLLSDVDDLASTFSKLNREPDVYSNTGPITDRRSSQNSLAAEWTHGEELPNWYGRQILDSDAIKDDKVWSAQPFSSLDRVEQRIPDRTKLYPEPQRQLHQDHNQQQFSSEPILVPKSSFVSYPPPGSISPDQRLGHPNIPYQSGGPQMGSPNFSPFPNLQPQLPSMHHGSPQHTGNRPQFRPALPLNNLPPAQWMNRQNMHPGDSSGIMNNAMLQQPPHQNGLMPPQMQGSQNRLPHPMQPPLGHMPGMQPQLFNSHLSRSSSSGNYDGMLGFGDLREVRPGSGHGNRQNVRFPQQGFDAGVQRRYPFRSKYMSAGEIENILRMQLVATHSNDPYVDDYYHQACLAKKSAGAKLKHHFCPNHLRDLQQRARSNNEPHAFLQVEALGRVPFSSIRRPRPLLEVDPPNSAKFGNAEHKPTDKPLDQEPMLAARVYIEDGLCLLLEVDDIDRFLEFNQLQDGGHQLKQRRQALLQSLAVSLQLGDPLAKNGQSQSLDDFLFLRVISLPKGRKLLIRYLQLIFPGSDLMRIVCMAIFRHLRSLFGVLSSDPDIIKTTNKLATVINLCIQNMELGPVSTCLAAVSCSSEQAPLRPLGSPVGDGASTVLKSILDRASELIRANNFNNAGIALWRASFNEFFNMLMRYCISKYDSIMQSLQLPPHFATEISEEAAKAIVREMPIELLRSSFPHIDEQQKRILMEFLKRSMLGSQKTEPVLS
B4: SCAR2‐mCherry (protein, UniProt Q5XPJ9 1-1399)
chain: MPLTRYQSRNEYGLADPDLYQAADKDDPEALLEGVAMAGLVGILRQLGDLAEFAAEMFHDLHEEVMATASRSHGLMARVQQLEAEFPSIEKALLCQTDHSPFFSNKGVEWHPNLQLEQSVVTSGDLPRCVMDSYEECRGPPRLFLLDKFDISGAGACLKRYTDPSFVRLETSSYEESWDDIQREKKSQKAKRRASQWRNGGTPENALSSHAKLHELFLEEHLEAHHSDPARVVKLKTRKLDGCSLISKSGESYMEKFVQTRVDSKISYEIITQNPGLLTWNMDSARDVVTDIPEISMVGAMDKSHGGSRAEVSFPSEQENVANVNMNGGFIEKDIETVPESTYNEVRGTTITQDSQTVLNGKPGFFQQRSYSEDLTSEADNYVDAPATMESETETDDECRPKSRSDTLKDGNHHIYSDAVEERMEDPPQFSFSHSNGNTPVSENGRSSFGKKSTSYSYSDTASISIDDQSDGEKLSGCLPSTSSFKSELVDSMSHVTPEANKVSHDLNVQESVSSSNVDGQTSLSSNGTCSSPRPVSQNDQSCSLTVQSLASEVVETSPELVRLDLMKGGNDGRKVDPFDSSKSCASFDAKNSDLPSETSSISSTSEGSRCDSTIEKNCMVASNLVNSGTSPQAFVDSQTGKQLPIADTDFETNSIVACSEVLANSGSDPEERDGRCLTGKLVPCSAGVGMEVSPDTPSKVCGPSSADGIHLKDTLDDETDCVSVTNVVVDVDSKNSVADVGSQSSVADIDSQSSVAEISDEHSCAFGNTADVSVSESHEDTLENGMSVPSDFNSGVEKLAGDASPTCSKCDDHISHEGFHDLSGLDNATTDIVPNVELDVSDNDNDTSSGGVNHAVSLSSTRGKGSLPWISTNTYQSSSDAGEIFHDTVVESDGTLLEDNNPESEIKMHKSPLEVSSEGLSTEPDNKDVESIESTSPKPSLDQRNRDTETKSPGESILDDNCIDSTQVYNLNLLESEAIDQAVREQTSYASHEVADEELLQSNVFRGLEFEPQSAGLEFAPQSAGIELNRPKQELNLDPTFPSFGFIPETIPPNPEDMPPLPPMQWLIGKVPHSFPTFMGESVETSSSALSAAPPIGSSLNVQIGSPPSELSVSLGSDESERLPGGFVHNASEKPLQSSIQFPTMSTDLNSQYDSSELPTIPYQECIEDFGSEENNLLADHAAQNHELVYSQASSLQLPQVKHEDFKDDADVHESQSSSDDHHCPETKSLTPTQSTKVEDKGHSVPDASNAETAESSNTSVQKINPVSVGDAMWPVSCFSVAPTLDTYKTEVVPTVRLPRPRSPLVDAVAAHDRRKMKKVSEMVHPPIKSKQDDKDSLLAQIRNKSVNLKPAVTTRPSIQTGPRTDLRVAAILEKANTIRMAMAGSDEDEDSDSWSDS
B5: BRK1‐mRuby (protein, UniProt Q94JY4 1-85)
chain: MAKAGGITNAVNVGIAVQADWENREFISHISLNVRRLFEFLVQFESTTKSKLASLNEKLDLLERRLEMLEVQVSTATANPSLFAT
B6: SOK3‐YFP (protein, UniProt Q8GYT8 1-540)
chain: MEARMKKYSREVSPERAKVWTEKSPKYHQKIKKVQIVYYLSKNRQLEHPHFMEVLISSPNGLYLRDVIERLNVLRGRGMASMYSWSSKRSYRNGFVWHDLSEDDLILPANGNEYVLKGSELFDESNSDHFSPIVNLATQNMKQIVVEPPSSRSMDDSSSSSSMNNGKGTNKHSHEDDELSPPALRSVSSSGVSPDSRDAKNSSSWCLAEYKVYKSEGLADASTQTDETVSGRSKTPIETFSRGVSTDEDVSSEPETSENNLVSEASCAGKERESAEISRNSVSPPFSNSASSLGGKTDTLESLIRADVSKMNSFRILEQEDVRMPAIPRLRASNMLMQLISCGSISVKDNNFGLVPTYKPKFGHSKFPSPFFSSSFMMGDLDRLSETPSLMGLRMEEKEYFSGSLVETKLQKKDAADSNASLKRSSSYNGDRASNQMGVAENGDSKPDSSKNNPSSRKASSILGKQQPLVSEKRRDSSEDTTKNIPCTTKTHDACSKRITESLRKPDSFREDEERVIKIDERLASGARVRIESKVPSEEP

Key:
[1] = molecular target: cYFP‐DCP1 (Arabidopsis thaliana); assay: split reporter; BiFC (nYFP/cYFP) by transient expression in N. benthamiana leaves; YFP signal intensity and YFP-positive puncta per cell by confocal microscopy
[2] = molecular target: HF‐mScarlet‐DCP1 (Arabidopsis thaliana); assay: FRET or BRET; sensitized emission FRET (SE‐FRET) in live Arabidopsis root cells (mainly epidermis, root regions 1–3)
[3] = molecular target: DCP1‐GFP (Arabidopsis thaliana); assay: as above
[4] = molecular target: DCP1^S237A‐GFP (Arabidopsis thaliana); assay: as above
[5] = molecular target: DCP1‐GFP (Arabidopsis thaliana); assay: FRET or BRET; acceptor photobleaching FRET in Arabidopsis root epidermal cells (regions 1 and 3)
[6] = molecular target: DCP1‐GFP (Arabidopsis thaliana); assay: proximity ligation; quantitative 3D PLA (Duolink) on fixed Arabidopsis roots with antibodies against the tags (α‐FLAG/α‐GFP or α‐GFP/α‐RFP); PLA spots per cell
[7] = molecular target: HF‐mScarlet‐DCP1 (Arabidopsis thaliana); assay: as above

Binder	binding [1]	binding [5]	binding [6]	further results
B1	binds	–	–	–
B2	binds	–	–	–
B3	–	–	–	binding [2]: binds weakly
B4	–	binds	binds	binding [3]: binds; binding [4]: binds
B5	–	binds	binds	–
B6	–	–	–	binding [7]: no binding
